From patent publication US7615651B2, “Diaryl, dipyridinyl and aryl-pyridinyl derivatives and uses thereof” (Pfizer Inc., priority 2006, dated 2009)
pKi: −log10 of the molar value. Structures were worked out from names or drawings and are uncertain.

Chains of the proteins cited; added tags and fusions are not shown.
UniProt P35372, whole entry: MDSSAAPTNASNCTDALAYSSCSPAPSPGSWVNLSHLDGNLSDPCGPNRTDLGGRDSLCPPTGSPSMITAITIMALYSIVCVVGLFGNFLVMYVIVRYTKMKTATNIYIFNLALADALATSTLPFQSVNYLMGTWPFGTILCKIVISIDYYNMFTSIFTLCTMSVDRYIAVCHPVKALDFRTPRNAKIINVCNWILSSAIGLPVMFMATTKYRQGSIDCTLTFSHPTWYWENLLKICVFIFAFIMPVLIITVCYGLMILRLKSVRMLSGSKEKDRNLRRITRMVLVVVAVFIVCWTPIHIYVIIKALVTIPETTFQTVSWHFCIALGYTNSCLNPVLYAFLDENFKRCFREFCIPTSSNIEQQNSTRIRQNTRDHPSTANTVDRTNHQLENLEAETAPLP
UniProt P41145, whole entry: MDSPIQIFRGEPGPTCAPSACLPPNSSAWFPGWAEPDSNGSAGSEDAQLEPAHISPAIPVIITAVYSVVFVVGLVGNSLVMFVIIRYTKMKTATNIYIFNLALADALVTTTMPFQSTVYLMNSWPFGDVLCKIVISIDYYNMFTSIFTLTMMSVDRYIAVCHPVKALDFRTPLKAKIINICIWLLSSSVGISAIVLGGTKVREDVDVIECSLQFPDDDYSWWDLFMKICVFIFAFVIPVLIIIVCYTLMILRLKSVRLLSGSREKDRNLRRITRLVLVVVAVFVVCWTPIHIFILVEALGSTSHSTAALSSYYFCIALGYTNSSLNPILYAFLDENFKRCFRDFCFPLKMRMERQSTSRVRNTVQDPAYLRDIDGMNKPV
UniProt P41143, whole entry: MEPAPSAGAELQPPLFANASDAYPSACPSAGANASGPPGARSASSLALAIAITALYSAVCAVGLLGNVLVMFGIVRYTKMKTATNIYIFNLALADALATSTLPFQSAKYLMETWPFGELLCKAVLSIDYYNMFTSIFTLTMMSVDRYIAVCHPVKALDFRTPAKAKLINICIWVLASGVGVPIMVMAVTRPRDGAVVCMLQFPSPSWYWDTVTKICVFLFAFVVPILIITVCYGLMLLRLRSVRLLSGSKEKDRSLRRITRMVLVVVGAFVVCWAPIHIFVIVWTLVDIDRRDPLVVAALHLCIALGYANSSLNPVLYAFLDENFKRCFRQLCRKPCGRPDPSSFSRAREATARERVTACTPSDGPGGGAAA

How the values were obtained:
Format in all cases: biochemical
opioid receptor mu = opioid receptor mu (Homo sapiens, UniProt P35372); experiment: GTPγ[35S] binding assay, antagonism of endorphin; settings: read-out: Mu functional (GTPγ[35S] binding Ki); average Ki; antagonism of endorphin (1 μM) stimulated GTPγ[35S] binding, mu opioid receptor membranes; tested form: HCl
opioid receptor kappa = opioid receptor kappa (Homo sapiens, UniProt P41145); experiment: GTPγ[35S] binding assay, antagonism of dynorphin-A; settings: read-out: Kappa functional (GTPγ[35S] binding Ki); average Ki; antagonism of dynorphin-A (10 nM) stimulated GTPγ[35S] binding, kappa opioid receptor membranes; tested form: HCl
opioid receptor delta = opioid receptor delta (Homo sapiens, UniProt P41143); experiment: GTPγ[35S] binding assay, antagonism of BW-373U86; settings: read-out: Delta functional (GTPγ[35S] binding Ki); average Ki; antagonism of BW-373U86 (1 nM) stimulated GTPγ[35S] binding, delta opioid receptor membranes; tested form: HCl

## Cc1cc(C(N)=O)ccc1-c1ccc(CNC2Cc3ccccc3C2)cc1F
Opioid receptor mu
  pKi: 9.97
Opioid receptor kappa
  pKi: 9.43
Opioid receptor delta
  pKi: 9.79
